# The supplement of paper PMC4604168 (melanoma cell lines)
# The list shows a part of the results. Single values are uncertain, as repeats are few or missing.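 The apoptosis fraction was the count of cleaved-PARP antibody-stained nuclei relative to all DNA-stained nuclei, imaged in 1,536-well plates. Screening doses were set so most cells survived, and baseline and induced cleaved-PARP levels vary greatly across cell lines.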
# Assays:
# Test in all cases: cleaved PARP positive nuclei fraction relative to DMSO control; melanoma cells; higher = more apoptosis
# Details in all cases: library dose: low library concentration; 72 h
# 501Mel = system: 501Mel
# A101D = system: A101D
# A2058 = system: A2058
# A375 = system: A375
# C32 = system: C32
# CBRC008 = system: CBRC008 (line from a melanoma biopsy)
# CBRC014 = system: CBRC014 (line from a melanoma biopsy)
# CBRC016 = system: CBRC016 (line from a melanoma biopsy)
# CBRC017 = system: CBRC017 (line from a melanoma biopsy)
# CBRC034 = system: CBRC034 (line from a melanoma biopsy)
# COLO792 = system: COLO792
# COLO800 = system: COLO800
# COLO829 = system: COLO829
# G361 = system: G361
# IPC-298 = system: IPC-298
# IST-MEL1 = system: IST-MEL1
# LB2518-MEL = system: LB2518-MEL
# LOXIMVI = system: LOXIMVI
# MEL-HO = system: MEL-HO
Compound,cleaved PARP positive nuclei fraction (501Mel) [%],cleaved PARP positive nuclei fraction (A101D) [%],cleaved PARP positive nuclei fraction (A2058) [%],cleaved PARP positive nuclei fraction (A375) [%],cleaved PARP positive nuclei fraction (C32) [%],cleaved PARP positive nuclei fraction (CBRC008) [%],cleaved PARP positive nuclei fraction (CBRC014) [%],cleaved PARP positive nuclei fraction (CBRC016) [%],cleaved PARP positive nuclei fraction (CBRC017) [%],cleaved PARP positive nuclei fraction (CBRC034) [%],cleaved PARP positive nuclei fraction (COLO792) [%],cleaved PARP positive nuclei fraction (COLO800) [%],cleaved PARP positive nuclei fraction (COLO829) [%],cleaved PARP positive nuclei fraction (G361) [%],cleaved PARP positive nuclei fraction (IPC-298) [%],cleaved PARP positive nuclei fraction (IST-MEL1) [%],cleaved PARP positive nuclei fraction (LB2518-MEL) [%],cleaved PARP positive nuclei fraction (LOXIMVI) [%],cleaved PARP positive nuclei fraction (MEL-HO) [%]
"Cc1ccc(Nc2nccc(N(C)c3ccc4c(C)n(C)nc4c3)n2)cc1S(N)(=O)=O [Pazopanib] + Nc1ccn([C@@H]2O[C@H](CO)[C@@H](O)C2(F)F)c(=O)n1 [gemcitabine] (first compound 0.4 µM, partner dose 0.0004 µM)",76.7,48.5,38.6,145,65.2,221,118,124,106,72.3,105,10.5,113,111,54.4,61,53.8,39.1,65.4
"CC[C@]1(O)C[C@H]2CN(CCc3c([nH]c4ccccc34)[C@@](C(=O)OC)(c3cc4c(cc3OC)N(C=O)[C@H]3[C@@](O)(C(=O)OC)[C@H](OC(C)=O)[C@]5(CC)C=CCN6CC[C@]43[C@@H]65)C2)C1 [vincristine] + Cc1cc(Nc2cc(N3CCN(C)CC3)nc(/C=C/c3ccccc3)n2)n[nH]1 [ENMD2076] (first compound 0.0001 µM, partner dose 0.04 µM)",85.9,216,1320,223,97.9,159,111,139,111,50.3,185,58.1,203,104,169,66.4,90,64.4,121
"N#CC[C@H](C1CCCC1)n1cc(-c2ncnc3[nH]ccc23)cn1 [ruxolitinib] + C[C@]1(c2nc3c(C(N)=O)cccc3[nH]2)CCCN1 [Veliparib] (first compound 1 µM, partner dose 1.4 µM)",96.9,148,273,161,69.2,70.6,114,172,158,58.7,84.8,113,56.3,61.8,44.6,122,60,92.5,240
"Cc1cn(-c2cc(NC(=O)c3ccc(C)c(Nc4nccc(-c5cccnc5)n4)c3)cc(C(F)(F)F)c2)cn1 [nilotinib] + OCc1c[nH]c2ccccc12 [Indole-3-carbinol] (first compound 0.2 µM, partner dose 0.8 µM)",159,69.1,189,76.2,77.4,97.1,96.8,97.6,96.1,37.4,57.3,123,70,116,144,145,110,46.4,150
"O=C(/C=C/c1cccnc1)NCCCCC1CCN(C(=O)c2ccccc2)CC1 + CN1CCN(c2ccc3nc(-c4c(N)c5c(F)cccc5[nH]c4=O)[nH]c3c2)CC1 [Dovitinib] (first compound 0.01 µM, partner dose 0.1 µM)",85.6,52.4,113,168,69.8,6150,110,1600,575,2470,351,110,432,2000,337,101,265,149,582
"Cc1cc(Nc2cc(N3CCN(C)CC3)nc(Sc3ccc(NC(=O)C4CC4)cc3)n2)n[nH]1 [Tozasertib] + O=C(O)[C@@H]1[O][Sb](=[O])([O][Sb]2(=[O])[O][C@H]([C@H](O)CO)[C@H](O)[C@H](C(=O)O)[O]2)[O][C@H]([C@H](O)CO)[C@@H]1O [stibogluconate] (first compound 0.006 µM, partner dose 2 µM)",113,46.9,182,52,29.7,51.8,90.8,4060,82.7,88.5,88.8,102,121,107,87.3,58.7,224,42.5,81.1
"O=c1[nH]nc(Sc2ncc([N+](=O)[O-])s2)n1-c1ccc2c(c1)OCCO2 + CN(c1ncccc1CNc1nc(Nc2ccc3c(c2)CC(=O)N3)ncc1C(F)(F)F)S(C)(=O)=O [PF562271] (first compound 0.2 µM, partner dose 0.08 µM)",72,54.4,197,75.6,92.5,192,125,361,87.3,143,126,60.2,86.4,64.9,99.3,116,110,211,59.6
"Cc1cn(-c2cc(NC(=O)c3ccc(C)c(Nc4nccc(-c5cccnc5)n4)c3)cc(C(F)(F)F)c2)cn1 [nilotinib] + Cn1cnc2c(F)c(Nc3ccc(Br)cc3Cl)c(C(=O)NOCCO)cc21 [selumetinib] (first compound 0.2 µM, partner dose 0.015 µM)",155,47.3,81,135,75.4,193,90.5,149,123,69.2,67.9,115,70.5,136,91.2,56.5,62.4,39.6,50.2
"Cc1cn(-c2cc(NC(=O)c3ccc(C)c(Nc4nccc(-c5cccnc5)n4)c3)cc(C(F)(F)F)c2)cn1 [nilotinib] + C#Cc1cccc(Nc2ncnc3cc(OCCOC)c(OCCOC)cc23)c1 [erlotinib] (first compound 0.2 µM, partner dose 0.8 µM)",95.2,177,130,117,86.4,127,96.3,96.9,125,44.3,82.3,143,390,115,92.4,31.4,95.1,47.9,128
"COc1cc([C@@H]2c3cc4c(cc3[C@@H](O[C@@H]3O[C@@H]5CO[C@@H](C)O[C@H]5[C@H](O)[C@H]3O)[C@H]3COC(=O)[C@H]23)OCO4)cc(OC)c1O [etoposide] + CS(=O)(=O)c1ccc(C(=O)Nc2ccc(Cl)c(-c3ccccn3)c2)c(Cl)c1 [vismodegib] (first compound 0.02 µM, partner dose 1 µM)",194,127,81.6,355,74.6,110,88.1,36.4,68.8,48.4,104,109,62,97.1,181,123,92.8,70.2,122
"Cc1cc(Nc2cc(N3CCN(C)CC3)nc(Sc3ccc(NC(=O)C4CC4)cc3)n2)n[nH]1 [Tozasertib] + COc1ccc(Cl)c(Nc2nc3ccccc3nc2NS(=O)(=O)c2cccc(NC(=O)C(C)(C)N)c2)c1 [XL147] (first compound 0.006 µM, partner dose 0.8 µM)",90.6,91.8,134,71.7,192,163,123,77.8,115,75,53.2,165,210,74.6,90.7,91.9,142,159,112
"Cc1ccc(Nc2nccc(N(C)c3ccc4c(C)n(C)nc4c3)n2)cc1S(N)(=O)=O [Pazopanib] + NC1(c2ccc(-c3nc4ccn5c(=O)[nH]nc5c4cc3-c3ccccc3)cc2)CCC1 [MK2206] (first compound 0.4 µM, partner dose 0.4 µM)",128,198,70.6,152,74.5,85.7,92.9,117,101,135,117,119,83.8,197,72.8,88.8,92,50.7,107
"O=C(Nc1cc(C(F)(F)F)cc(C(F)(F)F)c1)c1cc(Cl)ccc1O + CC(=O)c1c(C)c2cnc(Nc3ccc(N4CCNCC4)cn3)nc2n(C2CCCC2)c1=O [palbociclib] (first compound 0.016 µM, partner dose 0.04 µM)",389,475,46.9,99.1,130,93.5,142,162,97.2,274,166,88.7,96.2,112,128,70.1,229,274,45.5
"Cc1cn(-c2cc(NC(=O)c3ccc(C)c(Nc4nccc(-c5cccnc5)n4)c3)cc(C(F)(F)F)c2)cn1 [nilotinib] + C=C(c1ccc(C(=O)O)cc1)c1cc2c(cc1C)C(C)(C)CCC2(C)C [Bexarotene] (first compound 0.2 µM, partner dose 2 µM)",367,136,52,63.3,296,79.8,99.5,48.6,135,40.5,64.6,112,108,171,43.2,136,162,120,247
"O=C(Nc1cc(C(F)(F)F)cc(C(F)(F)F)c1)c1cc(Cl)ccc1O + CO[C@H]1C[C@@H]2CC[C@@H](C)[C@@](O)(O2)C(=O)C(=O)N2CCCC[C@H]2C(=O)O[C@H]([C@H](C)C[C@@H]2CC[C@@H](OCCO)[C@H](OC)C2)CC(=O)[C@H](C)/C=C(\C)[C@@H](O)[C@@H](OC)C(=O)[C@H](C)C[C@H](C)/C=C/C=C/C=C/1C [everolimus] (first compound 0.016 µM, partner dose 0.02 µM)",877,248,95.8,477,109,257,103,100,181,77.3,132,127,108,190,225,84.2,293,97.8,188
"CCCCCCCCCCCCCCCCCCOP(=O)([O-])OC1CC[N+](C)(C)CC1 [Perifosine] + O=c1[nH]nc(Sc2ncc([N+](=O)[O-])s2)n1-c1ccc2c(c1)OCCO2 [BI78D3] (first compound 0.4 µM, partner dose 0.2 µM)",59.2,31.5,37.2,164,143,88.6,110,67.7,93.6,62.4,85.1,82.7,76.9,82.7,42.3,65.2,153,63.4,209

# Some of the entries so far, as tab-separated lines:
Compound	cleaved PARP positive nuclei fraction (501Mel) [%]	cleaved PARP positive nuclei fraction (A101D) [%]	cleaved PARP positive nuclei fraction (A2058) [%]	cleaved PARP positive nuclei fraction (A375) [%]	cleaved PARP positive nuclei fraction (C32) [%]	cleaved PARP positive nuclei fraction (CBRC008) [%]	cleaved PARP positive nuclei fraction (CBRC014) [%]	cleaved PARP positive nuclei fraction (CBRC016) [%]	cleaved PARP positive nuclei fraction (CBRC017) [%]	cleaved PARP positive nuclei fraction (CBRC034) [%]	cleaved PARP positive nuclei fraction (COLO792) [%]	cleaved PARP positive nuclei fraction (COLO800) [%]	cleaved PARP positive nuclei fraction (COLO829) [%]	cleaved PARP positive nuclei fraction (G361) [%]	cleaved PARP positive nuclei fraction (IPC-298) [%]	cleaved PARP positive nuclei fraction (IST-MEL1) [%]	cleaved PARP positive nuclei fraction (LB2518-MEL) [%]	cleaved PARP positive nuclei fraction (LOXIMVI) [%]	cleaved PARP positive nuclei fraction (MEL-HO) [%]
Cc1ccc(Nc2nccc(N(C)c3ccc4c(C)n(C)nc4c3)n2)cc1S(N)(=O)=O [Pazopanib] + Nc1ccn([C@@H]2O[C@H](CO)[C@@H](O)C2(F)F)c(=O)n1 [gemcitabine] (first compound 0.4 µM, partner dose 0.0004 µM)	76.7	48.5	38.6	145	65.2	221	118	124	106	72.3	105	10.5	113	111	54.4	61	53.8	39.1	65.4
Cc1cn(-c2cc(NC(=O)c3ccc(C)c(Nc4nccc(-c5cccnc5)n4)c3)cc(C(F)(F)F)c2)cn1 [nilotinib] + OCc1c[nH]c2ccccc12 [Indole-3-carbinol] (first compound 0.2 µM, partner dose 0.8 µM)	159	69.1	189	76.2	77.4	97.1	96.8	97.6	96.1	37.4	57.3	123	70	116	144	145	110	46.4	150
O=C(/C=C/c1cccnc1)NCCCCC1CCN(C(=O)c2ccccc2)CC1 + CN1CCN(c2ccc3nc(-c4c(N)c5c(F)cccc5[nH]c4=O)[nH]c3c2)CC1 [Dovitinib] (first compound 0.01 µM, partner dose 0.1 µM)	85.6	52.4	113	168	69.8	6150	110	1600	575	2470	351	110	432	2000	337	101	265	149	582
Cc1cc(Nc2cc(N3CCN(C)CC3)nc(Sc3ccc(NC(=O)C4CC4)cc3)n2)n[nH]1 [Tozasertib] + COc1ccc(Cl)c(Nc2nc3ccccc3nc2NS(=O)(=O)c2cccc(NC(=O)C(C)(C)N)c2)c1 [XL147] (first compound 0.006 µM, partner dose 0.8 µM)	90.6	91.8	134	71.7	192	163	123	77.8	115	75	53.2	165	210	74.6	90.7	91.9	142	159	112
